# In the supplement of paper PMC10849652:
# The chains behind the UniProt entries cited, without tags or fusion partners. Where a name states a change or a piece, a line headed by the entry shows the natural chain unless it says otherwise.
# UniProt P48200: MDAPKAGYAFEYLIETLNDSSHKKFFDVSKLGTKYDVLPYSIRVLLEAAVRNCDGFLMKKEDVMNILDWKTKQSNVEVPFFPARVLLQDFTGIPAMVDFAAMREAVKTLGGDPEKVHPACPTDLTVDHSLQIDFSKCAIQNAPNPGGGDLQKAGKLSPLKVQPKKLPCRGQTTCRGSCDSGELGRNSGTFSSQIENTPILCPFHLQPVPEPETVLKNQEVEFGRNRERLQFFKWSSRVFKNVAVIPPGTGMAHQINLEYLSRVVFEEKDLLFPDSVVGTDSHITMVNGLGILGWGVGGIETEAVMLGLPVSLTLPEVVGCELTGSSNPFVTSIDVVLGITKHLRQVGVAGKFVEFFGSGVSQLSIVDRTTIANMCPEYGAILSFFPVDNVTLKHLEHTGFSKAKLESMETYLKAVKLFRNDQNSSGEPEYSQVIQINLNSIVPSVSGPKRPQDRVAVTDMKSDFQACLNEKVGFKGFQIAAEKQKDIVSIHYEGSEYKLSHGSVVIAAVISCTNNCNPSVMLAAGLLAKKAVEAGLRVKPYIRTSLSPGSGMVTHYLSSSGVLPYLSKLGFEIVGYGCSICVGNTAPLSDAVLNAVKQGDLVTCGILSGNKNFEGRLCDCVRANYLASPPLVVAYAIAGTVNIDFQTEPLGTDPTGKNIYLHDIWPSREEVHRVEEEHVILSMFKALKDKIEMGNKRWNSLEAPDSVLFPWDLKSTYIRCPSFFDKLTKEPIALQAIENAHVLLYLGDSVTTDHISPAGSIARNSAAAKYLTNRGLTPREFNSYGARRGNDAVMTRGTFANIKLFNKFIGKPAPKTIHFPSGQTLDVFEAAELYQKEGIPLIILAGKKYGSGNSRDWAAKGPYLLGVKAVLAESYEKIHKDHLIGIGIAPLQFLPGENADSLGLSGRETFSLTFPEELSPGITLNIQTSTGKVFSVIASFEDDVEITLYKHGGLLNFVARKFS
# UniProt Q12905: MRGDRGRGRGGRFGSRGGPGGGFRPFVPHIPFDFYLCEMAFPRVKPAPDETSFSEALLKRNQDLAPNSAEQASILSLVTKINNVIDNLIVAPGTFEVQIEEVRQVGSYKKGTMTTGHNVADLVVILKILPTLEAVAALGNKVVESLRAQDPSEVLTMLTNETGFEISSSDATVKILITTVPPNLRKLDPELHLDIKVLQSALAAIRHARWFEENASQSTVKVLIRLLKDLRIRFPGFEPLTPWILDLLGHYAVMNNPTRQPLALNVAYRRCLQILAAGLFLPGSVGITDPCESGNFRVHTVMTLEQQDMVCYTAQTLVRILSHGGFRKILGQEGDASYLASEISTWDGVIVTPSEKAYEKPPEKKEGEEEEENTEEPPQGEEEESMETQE
# UniProt Q9H6K1: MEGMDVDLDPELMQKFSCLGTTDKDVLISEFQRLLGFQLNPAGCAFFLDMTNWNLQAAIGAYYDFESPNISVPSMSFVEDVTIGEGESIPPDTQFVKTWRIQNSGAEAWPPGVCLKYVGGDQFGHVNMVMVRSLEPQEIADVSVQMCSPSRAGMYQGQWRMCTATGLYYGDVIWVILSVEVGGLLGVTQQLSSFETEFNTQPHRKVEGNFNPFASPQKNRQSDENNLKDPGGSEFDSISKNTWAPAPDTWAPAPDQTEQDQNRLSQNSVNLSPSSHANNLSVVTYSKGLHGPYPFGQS
# UniProt Q9H1B7, whole entry, looked up: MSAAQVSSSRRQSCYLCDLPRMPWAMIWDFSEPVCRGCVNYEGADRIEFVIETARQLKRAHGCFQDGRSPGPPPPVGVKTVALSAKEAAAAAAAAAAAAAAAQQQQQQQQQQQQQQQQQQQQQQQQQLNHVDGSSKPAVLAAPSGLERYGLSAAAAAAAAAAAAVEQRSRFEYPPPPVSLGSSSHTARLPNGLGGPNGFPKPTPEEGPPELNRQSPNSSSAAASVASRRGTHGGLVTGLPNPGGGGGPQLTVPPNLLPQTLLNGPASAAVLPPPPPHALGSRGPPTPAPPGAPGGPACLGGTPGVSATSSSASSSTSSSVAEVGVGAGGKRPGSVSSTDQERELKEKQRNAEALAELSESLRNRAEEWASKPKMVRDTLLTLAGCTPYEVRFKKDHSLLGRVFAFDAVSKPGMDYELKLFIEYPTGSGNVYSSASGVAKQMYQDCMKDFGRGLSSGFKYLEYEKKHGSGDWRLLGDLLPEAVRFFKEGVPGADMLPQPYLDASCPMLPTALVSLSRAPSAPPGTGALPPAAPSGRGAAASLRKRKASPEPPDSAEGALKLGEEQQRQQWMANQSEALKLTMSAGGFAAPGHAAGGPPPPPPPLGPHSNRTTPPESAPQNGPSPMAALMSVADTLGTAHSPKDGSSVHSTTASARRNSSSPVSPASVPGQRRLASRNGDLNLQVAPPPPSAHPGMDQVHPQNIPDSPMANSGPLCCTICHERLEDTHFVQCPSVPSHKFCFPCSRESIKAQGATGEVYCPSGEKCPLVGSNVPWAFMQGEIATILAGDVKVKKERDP
# UniProt Q96SY0, whole entry, looked up: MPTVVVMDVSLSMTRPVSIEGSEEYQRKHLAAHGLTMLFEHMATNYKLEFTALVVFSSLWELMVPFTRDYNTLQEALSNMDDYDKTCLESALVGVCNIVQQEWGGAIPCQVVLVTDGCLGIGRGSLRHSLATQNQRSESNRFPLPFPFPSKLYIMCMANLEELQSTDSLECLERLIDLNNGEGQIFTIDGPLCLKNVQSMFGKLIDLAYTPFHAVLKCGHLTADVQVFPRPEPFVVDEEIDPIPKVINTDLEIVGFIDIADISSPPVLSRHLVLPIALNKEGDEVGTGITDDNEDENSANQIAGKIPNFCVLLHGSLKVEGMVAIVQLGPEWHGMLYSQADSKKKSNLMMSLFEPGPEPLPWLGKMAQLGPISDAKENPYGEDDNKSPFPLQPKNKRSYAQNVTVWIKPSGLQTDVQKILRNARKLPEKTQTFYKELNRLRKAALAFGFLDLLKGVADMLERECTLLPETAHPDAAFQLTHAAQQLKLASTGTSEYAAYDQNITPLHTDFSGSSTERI
# UniProt Q12906, whole entry, looked up: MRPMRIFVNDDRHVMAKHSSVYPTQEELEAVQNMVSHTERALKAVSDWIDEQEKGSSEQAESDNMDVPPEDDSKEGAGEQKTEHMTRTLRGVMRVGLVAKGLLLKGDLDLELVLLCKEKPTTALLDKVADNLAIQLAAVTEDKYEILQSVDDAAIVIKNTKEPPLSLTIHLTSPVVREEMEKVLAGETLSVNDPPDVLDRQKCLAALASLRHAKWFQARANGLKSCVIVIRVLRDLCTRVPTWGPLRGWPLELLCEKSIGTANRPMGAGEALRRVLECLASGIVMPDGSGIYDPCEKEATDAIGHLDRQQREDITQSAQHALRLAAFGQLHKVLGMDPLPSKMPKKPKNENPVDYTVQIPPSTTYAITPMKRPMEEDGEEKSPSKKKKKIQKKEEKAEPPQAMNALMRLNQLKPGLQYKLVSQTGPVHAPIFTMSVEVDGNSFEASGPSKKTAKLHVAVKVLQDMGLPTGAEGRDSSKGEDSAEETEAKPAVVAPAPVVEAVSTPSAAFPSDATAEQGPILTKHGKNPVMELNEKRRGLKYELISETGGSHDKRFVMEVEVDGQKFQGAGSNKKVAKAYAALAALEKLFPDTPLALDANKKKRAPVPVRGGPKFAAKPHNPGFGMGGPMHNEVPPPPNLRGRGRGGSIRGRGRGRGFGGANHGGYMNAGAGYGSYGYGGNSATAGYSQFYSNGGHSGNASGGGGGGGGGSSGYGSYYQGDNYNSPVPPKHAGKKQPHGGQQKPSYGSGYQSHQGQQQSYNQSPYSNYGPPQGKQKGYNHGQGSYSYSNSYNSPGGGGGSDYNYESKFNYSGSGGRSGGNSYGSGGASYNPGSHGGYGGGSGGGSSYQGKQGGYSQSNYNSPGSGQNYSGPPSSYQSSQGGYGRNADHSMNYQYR
# UniProt Q8WZA9: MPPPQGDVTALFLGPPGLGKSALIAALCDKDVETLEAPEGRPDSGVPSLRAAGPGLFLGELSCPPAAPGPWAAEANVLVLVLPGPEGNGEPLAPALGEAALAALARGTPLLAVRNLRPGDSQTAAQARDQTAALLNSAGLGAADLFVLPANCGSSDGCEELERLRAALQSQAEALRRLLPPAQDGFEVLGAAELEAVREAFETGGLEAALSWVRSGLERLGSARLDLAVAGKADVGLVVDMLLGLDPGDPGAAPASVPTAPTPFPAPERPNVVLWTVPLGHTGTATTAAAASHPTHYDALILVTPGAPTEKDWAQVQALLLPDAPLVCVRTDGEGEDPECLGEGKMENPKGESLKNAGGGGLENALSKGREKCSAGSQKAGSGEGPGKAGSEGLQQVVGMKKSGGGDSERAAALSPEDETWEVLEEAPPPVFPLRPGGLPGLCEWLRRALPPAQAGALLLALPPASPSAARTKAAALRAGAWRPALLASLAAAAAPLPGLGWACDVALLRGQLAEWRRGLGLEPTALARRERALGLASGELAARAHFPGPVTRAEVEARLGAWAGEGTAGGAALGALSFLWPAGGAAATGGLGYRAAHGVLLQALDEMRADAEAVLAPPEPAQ
# UniProt O00458: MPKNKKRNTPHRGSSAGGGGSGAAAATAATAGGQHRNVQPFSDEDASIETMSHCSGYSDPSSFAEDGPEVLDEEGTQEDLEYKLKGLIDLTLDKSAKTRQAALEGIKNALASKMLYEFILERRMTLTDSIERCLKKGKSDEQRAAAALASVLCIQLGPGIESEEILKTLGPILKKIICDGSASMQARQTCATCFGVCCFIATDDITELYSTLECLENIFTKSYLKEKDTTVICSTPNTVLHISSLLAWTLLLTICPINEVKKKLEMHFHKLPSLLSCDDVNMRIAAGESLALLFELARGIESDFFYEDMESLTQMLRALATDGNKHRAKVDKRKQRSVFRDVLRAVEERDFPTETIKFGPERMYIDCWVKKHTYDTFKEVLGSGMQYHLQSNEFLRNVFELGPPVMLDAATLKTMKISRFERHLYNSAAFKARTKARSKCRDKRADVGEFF
# UniProt Q96CN7: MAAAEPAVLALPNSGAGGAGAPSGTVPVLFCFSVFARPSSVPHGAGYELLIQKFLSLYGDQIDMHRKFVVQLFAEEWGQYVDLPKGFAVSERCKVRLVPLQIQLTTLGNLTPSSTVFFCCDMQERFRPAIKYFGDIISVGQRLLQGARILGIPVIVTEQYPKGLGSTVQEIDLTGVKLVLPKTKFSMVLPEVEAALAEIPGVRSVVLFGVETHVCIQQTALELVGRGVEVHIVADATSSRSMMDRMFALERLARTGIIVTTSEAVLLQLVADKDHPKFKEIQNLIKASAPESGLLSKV
# UniProt Q14653: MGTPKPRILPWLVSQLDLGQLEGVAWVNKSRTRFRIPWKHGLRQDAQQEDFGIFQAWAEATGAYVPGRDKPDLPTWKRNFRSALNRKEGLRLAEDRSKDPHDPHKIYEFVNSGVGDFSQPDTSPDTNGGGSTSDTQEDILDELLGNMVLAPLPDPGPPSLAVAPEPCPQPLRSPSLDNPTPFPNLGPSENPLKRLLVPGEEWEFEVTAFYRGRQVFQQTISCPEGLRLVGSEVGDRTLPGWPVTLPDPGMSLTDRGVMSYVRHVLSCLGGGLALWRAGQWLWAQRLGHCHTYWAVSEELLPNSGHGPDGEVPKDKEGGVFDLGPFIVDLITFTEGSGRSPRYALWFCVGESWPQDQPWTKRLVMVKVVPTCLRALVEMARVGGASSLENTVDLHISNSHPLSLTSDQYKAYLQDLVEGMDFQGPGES
# UniProt Q9Y6K9, whole entry, looked up: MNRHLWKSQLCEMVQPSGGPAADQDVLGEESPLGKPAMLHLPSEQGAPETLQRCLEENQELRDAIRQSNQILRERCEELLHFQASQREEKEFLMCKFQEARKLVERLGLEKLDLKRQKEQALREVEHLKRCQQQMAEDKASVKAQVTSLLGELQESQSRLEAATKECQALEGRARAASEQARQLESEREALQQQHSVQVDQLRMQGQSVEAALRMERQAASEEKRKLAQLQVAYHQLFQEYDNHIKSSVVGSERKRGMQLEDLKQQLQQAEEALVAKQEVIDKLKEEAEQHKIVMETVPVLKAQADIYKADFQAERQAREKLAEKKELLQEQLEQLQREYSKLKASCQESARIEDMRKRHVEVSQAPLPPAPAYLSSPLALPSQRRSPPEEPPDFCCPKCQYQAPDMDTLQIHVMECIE
# UniProt Q9Y5U9: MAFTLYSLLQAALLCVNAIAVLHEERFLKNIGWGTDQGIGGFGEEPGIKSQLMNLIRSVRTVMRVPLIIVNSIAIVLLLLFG
# UniProt O75874, whole entry, looked up: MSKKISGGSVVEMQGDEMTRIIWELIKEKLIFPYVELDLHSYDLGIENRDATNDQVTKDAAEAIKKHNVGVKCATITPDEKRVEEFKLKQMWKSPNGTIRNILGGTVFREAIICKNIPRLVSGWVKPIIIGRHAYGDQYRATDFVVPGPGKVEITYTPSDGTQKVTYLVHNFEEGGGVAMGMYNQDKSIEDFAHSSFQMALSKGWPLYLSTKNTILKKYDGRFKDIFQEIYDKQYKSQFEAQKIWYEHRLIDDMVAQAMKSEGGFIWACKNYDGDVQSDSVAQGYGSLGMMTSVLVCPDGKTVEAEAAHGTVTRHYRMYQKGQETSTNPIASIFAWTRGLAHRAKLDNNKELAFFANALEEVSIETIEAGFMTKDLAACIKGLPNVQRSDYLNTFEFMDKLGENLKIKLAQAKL
# The list shows a part of the results.
# Experiments:
# Assay in all cases: log2 fold change, soluble protein after heating vs DMSO (PISA); higher = thermal stabilisation; K562 cells, 10 uM, 30 min; active = over 0.2 and 3.5 SD of the protein, either way, in both replicates (recomputed)
# [1] = compound: C1=CC=C(C=C1)[C@H](COC2=CC3=C(C=C2)NC(=O)N3)NC(=O)C4=CC=CN(C4=O)CC5=CC(=C(C=C5)F)F
# Summary of the method: (§1)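 For each measurement, 10 μM compound was applied for 30 min to K562 cells at 2×10^6 cells/mL. Aliquots were heated for 3 min across 48°C-58°C, pooled, and extracted in PBS with 0.5% NP-40 at 4°C; the supernatant after 21,000xg for 90 min was soluble protein. This was quantified by TMTpro 16plex LC-MS/MS with channel sums equalised, and thermal stability was reported relative to control samples from duplicates, on a log2 fold-change scale.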
# [2] = compound: CC1=C(SC2=C1C(=N[C@H](C3=NN=C(N32)C)CC(=O)N)C4=CC=C(C=C4)Cl)C
# Summary of the method: as §1
# [3] = compound: CC1=C2C(=CC=C1)N=C(N(C2=O)C3=CC=CC=C3C)CN4C=NC5=C(N=CN=C54)N
# Summary of the method: as §1
# [4] = compound: Cc1sc2c(c1C)C(c1ccc(Cl)cc1)=N[C@@H](CC(=O)OC(C)(C)C)c1nnc(C)n1-2
# Summary of the method: as §1
# [5] = compound: c1ccc([C@@H]2C[C@H]2NC2CCNCC2)cc1
# Summary of the method: as §1
Target,log2 fold change [1],log2 fold change [2],log2 fold change [3],log2 fold change [4],log2 fold change [5]
IGF2R (UniProt P11717),inactive: 0.013,inactive: 0.007,inactive: -0.008,inactive: 0.001,inactive: -0.002
IREB2 (UniProt P48200),inactive: -0.021,inactive: 0.047,inactive: -0.026,inactive: 0.004,inactive: -0.034
ILVBL (UniProt A1L0T0),inactive: -0.016,active: 0.371,inactive: 0.075,inactive: -0.067,inactive: -0.127
IPO7 (UniProt O95373),inactive: -0.082,inactive: 0.031,inactive: 0.069,inactive: -0.025,inactive: 0.003
IKBIP (UniProt Q70UQ0),inactive: 0.034,inactive: 0.007,inactive: 0.025,inactive: 0.07,inactive: 0.005
IPP (UniProt Q9Y573),inactive: 0.065,–,–,–,–
IDH3G (UniProt P51553),inactive: -0.014,inactive: -0.019,inactive: 0.007,inactive: 0.001,inactive: 0.015
ITGB1 (UniProt P05556),inactive: 0.026,inactive: -0.013,inactive: -0.017,inactive: 0.019,inactive: 0.018
INTS4 (UniProt Q96HW7),inactive: -0.011,inactive: 0.016,inactive: 0.028,inactive: -0.025,inactive: -0.021
IGHA1 (UniProt P01876),inactive: -0.138,inactive: 0.113,inactive: -0.196,inactive: -0.082,inactive: 0.142
INTS10 (UniProt Q9NVR2),inactive: -0.012,inactive: 0.084,inactive: 0.012,inactive: -0.138,inactive: -0.021
IGF2BP1 (UniProt Q9NZI8),inactive: 0.145,inactive: -0.327,inactive: -0.156,inactive: 0.285,inactive: 0.026
ILF2 (UniProt Q12905),inactive: 0.047,inactive: -0.078,inactive: -0.141,inactive: 0.14,inactive: 0.034
ISOC2 (UniProt Q96AB3),inactive: 0,inactive: -0.029,inactive: -0.004,inactive: -0.01,inactive: -0.024
IFT80 isoform 3 (UniProt Q9P2H3),inactive: -0.011,inactive: 0.052,inactive: 0.083,inactive: -0.036,inactive: -0.027
IK (UniProt Q13123),inactive: 0.023,inactive: -0.067,inactive: -0.006,inactive: 0.041,inactive: -0.045
IMPA1 (UniProt E5RIP7),inactive: -0.111,–,–,–,–
ILRUN (UniProt Q9H6K1),inactive: 0.029,inactive: 0.031,inactive: 0.119,inactive: 0.014,inactive: -0.009
IRF2BPL (UniProt Q9H1B7),inactive: -0.051,inactive: 0.027,inactive: 0.001,inactive: -0.067,inactive: -0.043

# Another view of part of the listing above.
Target	log2 fold change [1]	log2 fold change [2]	log2 fold change [3]	log2 fold change [4]	log2 fold change [5]
INTS10 (UniProt Q9NVR2)	inactive: -0.012	inactive: 0.084	inactive: 0.012	inactive: -0.138	inactive: -0.021
IGF2BP1 (UniProt Q9NZI8)	inactive: 0.145	inactive: -0.327	inactive: -0.156	inactive: 0.285	inactive: 0.026

# Next entries follow.

Target,log2 fold change [1],log2 fold change [2],log2 fold change [3],log2 fold change [4],log2 fold change [5]
IMPAD1 (UniProt Q9NX62),inactive: -0.002,inactive: 0.016,inactive: 0.056,inactive: -0.021,inactive: 0.067
IFI35 isoform 2 (UniProt P80217),inactive: 0.018,inactive: 0.065,inactive: 0.001,inactive: -0.006,inactive: -0.018
IGFBP4 (UniProt P22692),inactive: -0.019,inactive: -0.046,inactive: 0.087,inactive: -0.103,inactive: 0.148
INTS14 (UniProt Q96SY0),inactive: -0.038,inactive: 0.01,inactive: 0.041,inactive: -0.033,inactive: 0.021
ISCA1 isoform 2 (UniProt Q9BUE6),inactive: 0.059,inactive: -0.025,inactive: -0.119,inactive: -0.107,inactive: 0.021
IRAK1 (UniProt P51617),inactive: -0.189,–,–,–,–
IL18 (UniProt Q14116),inactive: -0.007,inactive: 0.055,inactive: 0.096,inactive: -0.008,inactive: 0.001
IGSF8 (UniProt Q969P0),inactive: -0.04,inactive: 0.075,inactive: -0.057,inactive: -0.082,inactive: -0.059
ILK (UniProt Q13418),inactive: -0.081,inactive: 0.017,inactive: 0.132,inactive: 0.053,inactive: -0.087
ILF3 (UniProt Q12906),inactive: 0.06,–,–,–,–
IRGQ (UniProt Q8WZA9),inactive: -0.053,inactive: 0.027,inactive: 0.048,inactive: -0.016,inactive: -0.047
IST1 isoform 5 (UniProt P53990),inactive: -0.057,inactive: 0.023,inactive: 0.071,inactive: -0.015,inactive: -0.034
IMMT isoform 2 (UniProt Q16891),inactive: 0.021,inactive: 0.029,inactive: 0.035,inactive: 0.091,inactive: 0.033
IDH3A (UniProt P50213),inactive: -0.029,inactive: 0.018,inactive: 0.026,inactive: -0.025,inactive: -0.005
IFRD1 (UniProt O00458),inactive: -0.011,inactive: -0.069,inactive: 0.049,inactive: 0.02,inactive: 0.004
ITFG1 (UniProt Q8TB96),inactive: -0.041,inactive: 0.025,inactive: 0.021,inactive: 0.081,inactive: 0.025
ISOC1 (UniProt Q96CN7),inactive: 0.033,inactive: 0.054,inactive: 0.025,inactive: 0.003,inactive: 0.011
IL18R1 (UniProt Q13478),inactive: 0.016,–,–,–,–
IGBP1 (UniProt P78318),inactive: -0.03,inactive: 0.132,inactive: 0.018,inactive: -0.003,inactive: -0.075

Target,log2 fold change [1],log2 fold change [2],log2 fold change [3],log2 fold change [4],log2 fold change [5]
IDH3B (UniProt O43837),inactive: -0.013,inactive: 0.02,inactive: 0.036,inactive: 0.004,inactive: -0.016
IL23R (UniProt Q5VWK5),inactive: -0.324,inactive: 0.096,inactive: 0.073,inactive: 0.093,inactive: 0.139
IRF3 (UniProt Q14653),inactive: -0.049,inactive: 0.123,inactive: 0.015,inactive: -0.007,inactive: -0.01
IKBKG isoform 2 (UniProt Q9Y6K9),inactive: 0.049,inactive: -0.04,inactive: 0.002,inactive: -0.005,inactive: 0.022
IDH2 (UniProt P48735),inactive: 0.027,inactive: 0.041,inactive: 0.018,inactive: 0.004,inactive: 0
IER3IP1 (UniProt Q9Y5U9),inactive: 0.07,inactive: -0.252,inactive: -0.263,inactive: -0.012,inactive: 0.063
ITIH3 (UniProt Q06033),inactive: -0.031,inactive: -0.04,inactive: 0.018,inactive: 0.118,inactive: -0.033
INTS7 (UniProt Q9NVH2),inactive: -0.005,inactive: 0.086,inactive: 0.001,inactive: -0.085,inactive: -0.054
INPP1 (UniProt P49441),inactive: -0.017,inactive: -0.002,inactive: 0.125,inactive: -0.002,inactive: 0.01
IL1RAP isoform 5 (UniProt Q9NPH3),inactive: -0.314,inactive: -0.392,inactive: 0.187,inactive: 0.065,inactive: -0.057
ISYNA1 (UniProt Q9NPH2),inactive: -0.064,inactive: -0.001,inactive: -0.001,inactive: -0.027,inactive: 0.013
IFI30 (UniProt P13284),inactive: -0.066,inactive: 0.01,inactive: -0.06,inactive: 0.004,inactive: 0.048
IDH1 (UniProt O75874),inactive: 0.008,inactive: 0.006,inactive: -0.009,inactive: -0.008,inactive: 0.006
ITFG2 (UniProt Q969R8),inactive: 0.084,inactive: 0.176,inactive: 0.168,inactive: 0.076,inactive: 0.045
IKBIP isoform 4 (UniProt Q70UQ0),inactive: 0.039,inactive: 0.004,inactive: 0.017,inactive: 0.032,inactive: 0.018
IGSF3 (UniProt O75054),inactive: 0.006,inactive: 0.054,inactive: 0.001,inactive: 0.027,inactive: 0.044
IMPDH1 isoform 6 (UniProt P20839),inactive: 0.05,inactive: -0.14,inactive: -0.111,inactive: -0.004,inactive: 0
ITIH4 (UniProt Q14624),inactive: -0.088,inactive: 0.015,inactive: 0.089,inactive: -0.133,inactive: -0.006
